Laboratory results published in PMC10163288.
The other results are listed elsewhere or left out.

B1: il2ra_site2_2erj_sap_24_mot_HHH_eva_0077_000000062_0001_1_20_H_._HHH_b1_02351_0001_0000400024_0000001_0_0001 (protein)
chain: SSSSDERLRAASLLIEAAALAFRLGDEETAKRLRELFARYARENDPRYAEEAEELEEELNSSSSS
B2: il2ra_site1_3nfp_normal_mot_HHH_b1_01231_af2_000000170_0001_1_16_H_._HHH_b1_05546_af2_0001_0000100003_0000001_0_af2pred_0001_af2pred_1_swapped (protein)
chain: SSSSDEEEAEELFERVREELERLLKEDPQKASRLAREAVRLLLELGNRELAQRLLRFAAKLSSSS
B3: il2ra_site2_3nfp_sap_20_mot_HHH_b1_01080_000000101_0001_40_56_H_._HHH_b1_05979_0001_0001800050_0000001_0_0001 (protein)
chain: SLEELVEEVEEKVPDPLLVAALRYALAAVLLRNDPELRRLLEEAVRLLEEGDPERAAELLAKILH
B4: il2ra_site1_2b5i_normal_mot_f5ff40796168375b462bec8614a1db4a_0001_1_000000138_0001_53_65_H_._HHH_b2_01111_0001_0000200008_0000001_0_af2pred_dldesign_0_af2pred (protein)
chain: SSSSSSDAKEDVEELIELAKKEEDPNLRNRILKMAKQTAERAKNPELVAKVEKVKEELSSSSSSS
B5: il2ra_site2_2erj_normal_mot_6bd1339e93f6fdda22195c76da45ec5d_0001_000000136_0001_37_51_H_._HHH_b2_06260_0001_0000300008_0000001_0_af2pred_0001_1_af2pred_swapped (protein)
chain: SSSSSEDEEEVEELLEQAKEAAKRDPHKAAILLAEAMEIALESQNEELEEAVSKVSQEIWRSSSS
B6: il2ra_site2_2erj_sap_26_mot_720936397f2d31669eff21710c18a4fc_0001_000000071_0001_37_51_H_._HHH_b2_01095_0001_0000200007_0000001_0_0001 (protein)
chain: SSSDLEEEVKRLLEEAEELLKEGNPEEAWRVLREAATIVFRLGNEELFNEVLEALHEIAKRNSSS
B7: il2ra_site1_1z92_sap_14_mot_22370d59370c406a0c205a431f537cfa_0001_000000027_0001_1_14_H_._HHH_b2_04392_0001_0000500006_0000001_0_0001_af2pred_0001_af2pred_1_swa … (protein)
chain: SSSSDEEDRKVIRIVAELYRKFKLSEEQLKELHKLALELLQNGVSEEEIEELLEEQAKRLSSSSS
B8: il2ra_site2_3nfp_sap_23_mot_6ba2120c21ebf0bdaaca7550098e1d96_0001_af2_000000030_0001_16_30_H_._HHH_b1_06076_0001_0000200004_0000001_0_0001 (protein)
chain: SSSSDKEEEIERLLEEVERLLEEGDPTEAVQVLMRASKLAAELGDEELARKVLELFKELQSSSSS
B9: il2ra_site1_1z92_sap_5_mot_HHH_b1_00499_000000182_0001_1_17_H_._HHH_b1_05364_0001_0000100004_0000001_0_0001_af2pred_0001_af2pred (protein)
chain: DVEEELRELAEELGLPPEELEKLLEELQELFDAPPELALEALLRVLKLAGSAETVRRFVERMRRT
B10: il2ra_site1_1z92_sap_23_mot_HHH_b1_07866_af2_000000238_0001_1_18_H_._HHH_b1_03132_0001_0000100002_0000001_0_0001_af2pred_0001_af2pred_1 (protein)
chain: SSSSDREEEIVRRIVEELGLSEELEEHLEKDAEQALRAGVSEKSVELVLRDLAELLERRESSSSS
B11: il2ra_site2_3nfp_normal_mot_HHH_b1_00660_af2_000000090_0001_40_57_H_._HHH_b1_06567_0001_0000600014_0000001_0_af2pred_0001_1_af2pred_swapped (protein)
chain: SSSSDELEERIRELLERVEELIKEGNPEEAERLLREAAKLVLELGDQELFALIYELKELLESSSS
B12: il2ra_site1_3nfp_normal_mot_HHH_b2_00286_000000273_0001_43_57_H_._97e99672e168623ff83a69b38e8865de_0001_1_0001_0000200016_0000001_0_af2pred_0001_af2pred_1 (protein)
chain: SDEELLKRMVEYAVRNNSPRTLRKILRALRARLGDPEEAERVLEELIEEVLGDPEEAQRLVEEAK
B13: il2ra_site1_3nfp_normal_mot_HHH_b1_07440_af2_000000231_0001_1_19_H_._HHH_b1_04788_0001_0000400025_0000001_0 (protein)
chain: SSSSSERLIEDVLRSAERLEELAEELGDEELRKEVEELYEELRKHNDPEALQRLLRLAWEFSSSS
B14: il2ra_site2_2erj_sap_22_mot_HHH_b1_07609_af2_000000145_0001_21_36_H_._HHH_b2_04596_0001_0000200002_0000001_0_0001 (protein)
chain: SSSSDEELRELFRLISELLHLVSNGDEEEARELAEELKKLAQETNSPNAEEHIEANLRKVTSSSS
B15: il2ra_site2_3nfp_sap_18_mot_HHH_b2_06150_000000217_0001_39_53_H_._HHH_b2_00252_0001_0000700027_0000001_0_0001 (protein)
chain: SSSSDYEEKIKELEEEAKELEEEGNPEEAYRVIAKAAVIAWENNDTETYMKLAELAFEIAQSSSS
B16: il2ra_site2_3nfp_normal_mot_HHH_b1_02096_000000221_0001_22_38_H_._HHH_b1_01329_af2_0001_0000100001_0000001_0 (protein)
chain: SSSSSEEEAEEAVEAAIRLARERGDEEVLEELERLLEEARKEGDYRLLMEAYALIQELALESSSS
B17: il2ra_site1_1z92_normal_mot_HHH_b2_04375_000000267_0001_42_56_H_._HHH_b2_07094_0001_0000200008_0000001_0 (protein)
chain: SSSSSSLEEIAREIVEELVEEYGLSEEDKEALEKDAELLVRLGFSPRSIEIALRSAAERASSSSS
B18: il2ra_site1_2b5i_normal_mot_f5ff40796168375b462bec8614a1db4a_0001_1_000000138_0001_53_65_H_._HHH_b1_07140_af2_0001_0000300020_0000001_0_af2pred_dldesign_0_af2pr … (protein)
chain: SSSSSDLRELVRELVEEAERLEKEGKPELARKLLILARRLAKKAKDEELVAELEAKLKELESSSS

These binders were tested against il2ra, P01589 (assay: yeast display titration).

Apparent Kd, inactive:
B1 no binding seen
B2 no binding seen
B3 no binding seen
B4 no binding seen
B5 no binding seen
B6 no binding seen
B7 no binding seen
B8 no binding seen
B9 no binding seen
B10 no binding seen
B11 no binding seen
B12 no binding seen
B13 no binding seen
B14 no binding seen
B15 no binding seen
B16 no binding seen
B17 no binding seen
B18 no binding seen

Pulled one by one from the list above (2):
Apparent Kd, inactive:
B8 no binding seen
B16 no binding seen
